Results deposited as PubChem BioAssay AID743454 (Peter MacCallum Cancer Centre, 2014).
The deposit covers about 18,000 reagents; this is an unselected part. Of all reagents, 450 (2.5%) were called active. 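Single biological run; no consistent viability z cut-off exists, so the class columns, not z-scores, define the calls.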 Entries without a mark were called inactive. Reagent sequences are not shown.

Screen: 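Search for knock-downs that restore vorinostat killing in resistant colon cancer cells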 (primary screen)
Cells: human HCT116-VR colon cancer cells, selected for vorinostat resistance
Reagent: siRNA pool against human genes, 40 nM siRNA pool
Timing: vorinostat for 24 h, read-out about 72 h after transfection
Challenge: vorinostat at 2.5 µM final
Read-out: 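Two measures, CellTiter-Fluor viability and luminescent caspase 3/7 activity, each as fold change against same-plate mock wells, mean of duplicates, then screen-wide robust z-score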
Reading the numbers: viability robust z-score: higher = more viable cells than screen typical; caspase robust z-score: higher = more caspase 3/7 activity than screen typical
Active means: 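a knock-down is a hit when classed RV1 or RV2 for lowered viability, or CA1 or CA2 for caspase activation; those lethal without drug were dropped; hits were retested singly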

{"gene": "GCSAML (germinal center associated signaling and motility like)", "PubChem SID": "SID152155772", "viability hit class": "no change", "caspase hit class": "no change", "viability robust z-score": 0.24, "caspase robust z-score": -0.32}
{"gene": "NRF1 (nuclear respiratory factor 1)", "PubChem SID": "SID135623418", "viability hit class": "no change", "caspase hit class": "no change", "viability robust z-score": 0.34, "caspase robust z-score": 1.5}
{"gene": "CHST12 (carbohydrate sulfotransferase 12)", "PubChem SID": "SID152152145", "viability hit class": "no change", "caspase hit class": "no change", "viability robust z-score": -1.27, "caspase robust z-score": 2.5}
{"gene": "PCF11 (PCF11 cleavage and polyadenylation factor subunit)", "PubChem SID": "SID152149006", "viability hit class": "no change", "caspase hit class": "no change", "viability robust z-score": -2.36, "caspase robust z-score": -0.22}
{"gene": "NPFF (neuropeptide FF-amide peptide precursor)", "PubChem SID": "SID135622136", "viability hit class": "no change", "caspase hit class": "no change", "viability robust z-score": -0.96, "caspase robust z-score": 0.76}
{"gene": "RUSC1-AS1 (RUSC1 antisense RNA 1)", "PubChem SID": "SID135623467", "viability hit class": "no change", "caspase hit class": "no change", "viability robust z-score": 0.42, "caspase robust z-score": -0.48}
{"gene": "PRDM7 (PR/SET domain 7)", "PubChem SID": "SID134319232", "viability hit class": "no change", "caspase hit class": "no change", "viability robust z-score": 0.46, "caspase robust z-score": -0.79}
{"gene": "PAXBP1 (PAX3 and PAX7 binding protein 1)", "PubChem SID": "SID152148975", "viability hit class": "no change", "caspase hit class": "no change", "viability robust z-score": -2.02, "caspase robust z-score": -1.47}
{"gene": "CCT4 (chaperonin containing TCP1 subunit 4)", "PubChem SID": "SID134323883", "viability hit class": "no change", "caspase hit class": "no change", "viability robust z-score": -2.23, "caspase robust z-score": 2.41}
{"gene": "FLCN (folliculin)", "PubChem SID": "SID152156257", "viability hit class": "no change", "caspase hit class": "no change", "viability robust z-score": -1.02, "caspase robust z-score": -0.29}
{"gene": "WTAP (WT1 associated protein)", "PubChem SID": "SID135623312", "viability hit class": "no change", "caspase hit class": "no change", "viability robust z-score": -0.14, "caspase robust z-score": -1.04}
{"gene": "CCDC74A (coiled-coil domain containing 74A)", "PubChem SID": "SID152150518", "viability hit class": "no change", "caspase hit class": "no change", "viability robust z-score": 0.66, "caspase robust z-score": 0.86}

Only “caspase hit class”, for 2 of the entries above:
RUSC1-AS1 (RUSC1 antisense RNA 1) [SID135623467] = no change
PRDM7 (PR/SET domain 7) [SID134319232] = no change
